Some of the results follow.

Sequences of proteins named here, by UniProt entry; tags and fusion partners are left off.
UniProt Q0JBA9, entry or part of it: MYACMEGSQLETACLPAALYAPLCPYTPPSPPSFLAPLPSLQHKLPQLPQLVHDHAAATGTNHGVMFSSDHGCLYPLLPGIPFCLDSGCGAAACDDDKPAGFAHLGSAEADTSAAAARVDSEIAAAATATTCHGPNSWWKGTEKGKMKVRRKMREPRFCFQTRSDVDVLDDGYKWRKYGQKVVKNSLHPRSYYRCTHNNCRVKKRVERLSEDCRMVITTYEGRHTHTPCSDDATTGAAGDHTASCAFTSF

This experiment concerns the target OsWRKY34 (Oryza sativa, UniProt Q0JBA9 1-250). As to the kind of experiment: protein-binding microarray (RPBM); PBS, 2% BSA, 51.3 ng/ul salmon testes DNA, 50 uM zinc acetate, 200 nM TF, 25 C, 1 h; high values mean tight binding. Conditions: protein: recombinant; tags: N-terminal polyhistidine and DsRed monomer fusion (pET32a); label: CyDye5-dUTP incorporated in the synthesized complementary strand; 3' TTTTT single-stranded linker to array surface; dsDNA, one strand shown. In short, it runs like this:
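Transcription factors were made in E. coli BL21-CodonPlus as N-terminal fusions to a polyhistidine tag and DsRed, then purified on Ni–NTA. After primer extension with Cy5-dUTP and blocking with 2% BSA, a custom Agilent array was exposed for 1 h at 25 °C to 200 nM protein in PBS, 2% BSA, salmon testes DNA and 50 µM zinc acetate. Washed arrays were scanned on an Axon 4000B, and the binding signal is per-feature fluorescence intensity in arbitrary units.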
For “ACTTGGCCCCACCTGGCAGCCTCTCCAGCTCGCCCTTCTTCGGAGTCACCTAGTGCAG”, the binding signal is 9000 fluorescence intensity (a.u.).

As to “TTCTGCTACCTATTCTTTTCGCAGTGCTGCACATTAAATTCGGAGTCACCTAGTGCAG”, the binding signal is 9370 fluorescence intensity (a.u.).

For “TCTCAGTGCCGGTGTGGGATCGTGGTTGTGTGTGTGATTGCGGAGTCACCTAGTGCAG”, the binding signal is 9020 fluorescence intensity (a.u.).

Take “GTTTATTTTTCAGTCTTTGCTTTTAGATCGTTAAAAATATCGGAGTCACCTAGTGCAG”: the binding signal was 8970 fluorescence intensity (a.u.).

On to “TTAGACCGGTTCATGTAACTGTAACTACGCTGACTTATTGCGGAGTCACCTAGTGCAG”, for which the binding signal was 9250 fluorescence intensity (a.u.).

For “AGCCAAGTGCTCACCTGTTCGCATGCCCATTGCTGCTGCGCGGAGTCACCTAGTGCAG”, the binding signal is 11300 fluorescence intensity (a.u.).

Consider “AATGCTTTGAGACCACTCCCTCTCTCTTTTTCTCTCTCACCGGAGTCACCTAGTGCAG”, for which the binding signal was 8110 fluorescence intensity (a.u.).

As to “CTATTGACCTTGCTCTCAAGCGCCACATGCTTCTGCTCACCGGAGTCACCTAGTGCAG”, the binding signal is 8750 fluorescence intensity (a.u.).

For “CACCTAGGAGTAGTAGTTTGGGTTTGGGTTCCTCTCTCGTCGGAGTCACCTAGTGCAG”, the binding signal was 8520 fluorescence intensity (a.u.).

As to “CCCAATCTCTCCCATTTCCATTTCCATTTCCATTTCCTCCCGGAGTCACCTAGTGCAG”, the binding signal was 11100 fluorescence intensity (a.u.).

As for “TCTCGCGCCGCCCTCGCTCTTCGCCGTTTCGCCGCTGGCCCGGAGTCACCTAGTGCAG”, the binding signal is 8950 fluorescence intensity (a.u.).

Regarding “TTCTGCGCACTCTGCACCGCTGATTTTGTTTGTTGATTCTCGGAGTCACCTAGTGCAG”, the binding signal is 9760 fluorescence intensity (a.u.).

“CCTGAACTCTCATTTTGGGGATGCTGGGAGAAGTTTGGGTCGGAGTCACCTAGTGCAG”: the binding signal was 10600 fluorescence intensity (a.u.).

“GGAGGCTTGTGCTGCTTCGTCTTTTCCCGCCGCCGCGCACCGGAGTCACCTAGTGCAG”: the binding signal was 9680 fluorescence intensity (a.u.).

Take “TTCATCCCCTAACCCTTTCTTTGTTCATCTTGTTCTTCCTCGGAGTCACCTAGTGCAG”: the binding signal is 9970 fluorescence intensity (a.u.).

Consider “GCACACCCTAATTTGCTTTACCTAGGCCGTGTTTAGTTCCCGGAGTCACCTAGTGCAG”, for which the binding signal was 9110 fluorescence intensity (a.u.).

In the case of “CATTTCGTTCACACAGTAGGTTCTTTGAGACTAGATATCTCGGAGTCACCTAGTGCAG”, the binding signal was 8170 fluorescence intensity (a.u.).

On to “AGCGCACAAACCCACACACAGATTATTAACATCATGCTGTCGGAGTCACCTAGTGCAG”, for which the binding signal was 10200 fluorescence intensity (a.u.).

“GACACTAGGACAGTACGTAGCTACCTCTCCACTGCTCTGCCGGAGTCACCTAGTGCAG”: the binding signal is 8730 fluorescence intensity (a.u.).

In the case of “TCTCTTTCTCTCTCTCACTTTAGTGCTAGAATGGCAAAACCGGAGTCACCTAGTGCAG”, the binding signal is 11600 fluorescence intensity (a.u.).

In the case of “AGGAAATGTCTCATCAAATACTAGATTGGTTTTTTTTTACCGGAGTCACCTAGTGCAG”, the binding signal is 8960 fluorescence intensity (a.u.).

As to “GTTGATTTGTGTTTTGACTTTTGAAAAGACTACTGTTACTCGGAGTCACCTAGTGCAG”, the binding signal was 8210 fluorescence intensity (a.u.).

As for “ATCTCGATCCCCGCCGCGCCGCCGTTCCTCCACGCCGCCGCGGAGTCACCTAGTGCAG”, the binding signal was 8860 fluorescence intensity (a.u.).

For “TGTGAGTGAGTTTTGTTTCGTTTTCCGCGCGCACGTTTTCCGGAGTCACCTAGTGCAG”, the binding signal is 11200 fluorescence intensity (a.u.).

With “TTATATCCTGTTTTGTGGTTTAAGGATGTCATTTGACCAACGGAGTCACCTAGTGCAG”, the binding signal was 8420 fluorescence intensity (a.u.).

Turning to “TGAGGGAGGGTTTTTCTTGTAAATATTATACGTACGTTTACGGAGTCACCTAGTGCAG”, the binding signal was 13600 fluorescence intensity (a.u.).

As to “ACACACGCCAGCTCTCACGTACTTTGCGTGTTCACCCCAGCGGAGTCACCTAGTGCAG”, the binding signal was 9270 fluorescence intensity (a.u.).

On to “AGGTTTCAGACGTTATTTTGCCTTTGTACACTCTTACTGCCGGAGTCACCTAGTGCAG”, for which the binding signal is 8192 fluorescence intensity (a.u.).

As for “TCTGTTCCAAAGGAGGTCTTGTTGTTTGGCTGTGTTTCTTCGGAGTCACCTAGTGCAG”, the binding signal is 9770 fluorescence intensity (a.u.).

For “CAATCATTATTTACTTTATTTTCTCCCAATACAATTTATTCGGAGTCACCTAGTGCAG”, the binding signal is 8680 fluorescence intensity (a.u.).

Turning to “CCCTTTCCTCAACGCATGAATTCCCCTTGTTCACGGTGAACGGAGTCACCTAGTGCAG”, the binding signal is 8400 fluorescence intensity (a.u.).

Take “CCGGGTCACACATCCCCTCATACTCGGGCCTTGTTTAGTTCGGAGTCACCTAGTGCAG”: the binding signal is 8740 fluorescence intensity (a.u.).

For “ATCATTTAGTTGACATACTCACTCTGTTTCAGGCTACAAGCGGAGTCACCTAGTGCAG”, the binding signal is 8100 fluorescence intensity (a.u.).

Turning to “ATCCGTGTATTATAGCGTTTCGTAGTAGTATTTTTATGTCCGGAGTCACCTAGTGCAG”, the binding signal is 9280 fluorescence intensity (a.u.).

With “ATCTCTCTATCTCCCTCTGATGTTCTGTCTCTCTCTCTCTCGGAGTCACCTAGTGCAG”, the binding signal was 8860 fluorescence intensity (a.u.).

On to “GACCTCGCTTCCCCGCCGGCCGCCATGAAATTGGAGCTTCCGGAGTCACCTAGTGCAG”, for which the binding signal is 9870 fluorescence intensity (a.u.).

For the sequence “CTCGCACCTCCTACCTCTCCAGTGTGAGTCTCCACCTACCCGGAGTCACCTAGTGCAG”, the binding signal was 8950 fluorescence intensity (a.u.).

With “ACTGAGATCCCTTGCAGTACTGCAATAGTACCACACAAATCGGAGTCACCTAGTGCAG”, the binding signal was 8110 fluorescence intensity (a.u.).

With “TCACTCATTCACTCTCCACGCTTTCACTTCACTCGCCCACCGGAGTCACCTAGTGCAG”, the binding signal was 9040 fluorescence intensity (a.u.).

Regarding “TCTCCTACTTCTTGCCTGCCTCGCACCTCACTCTTCTTCCCGGAGTCACCTAGTGCAG”, the binding signal is 10400 fluorescence intensity (a.u.).

Take “CACCAGCATCCTCGCACGGTCGCGACCCCTCCCGCACCTCCGGAGTCACCTAGTGCAG”: the binding signal is 8200 fluorescence intensity (a.u.).

For “CTTCTTCCGTGGTTTACTGCTTCCTCTTGTGCTACTTCTTCGGAGTCACCTAGTGCAG”, the binding signal was 11400 fluorescence intensity (a.u.).

Source of the values: publication PMC7819943, “Rice protein-binding microarrays: a tool to detect cis-acting elements near promoter regions in rice”.
